Results as given in patent publication US20160333065A1.

Biological target: HLA-B*3501 (human)
Test: competition-based cellular HLA class I binding assay (stripped B-LCL, flow cytometry); column 'HLA class I molecule in which the peptide binds'

How did the binding turn out when LPRELFPPLF [PRAME peptide 48-57 …] was run?
The binding was “binds”.

Results are given in words; binding and its absence hold for the method and conditions named. Binding can be weak; no strength is given.
